Experimental data: patent publication US8173397B2, “Folded recombinant catalytic fragments of multidomain serine proteases, preparation and uses thereof” (TargetEx Kft., priority 2002, dated 2012)
The name of at least one read-out is uncertain.

Sequences of proteins named here, by UniProt entry; tags and fusion partners are left off. Residues count along the entry.
UniProt P01024, 23-667 partner limits assumed: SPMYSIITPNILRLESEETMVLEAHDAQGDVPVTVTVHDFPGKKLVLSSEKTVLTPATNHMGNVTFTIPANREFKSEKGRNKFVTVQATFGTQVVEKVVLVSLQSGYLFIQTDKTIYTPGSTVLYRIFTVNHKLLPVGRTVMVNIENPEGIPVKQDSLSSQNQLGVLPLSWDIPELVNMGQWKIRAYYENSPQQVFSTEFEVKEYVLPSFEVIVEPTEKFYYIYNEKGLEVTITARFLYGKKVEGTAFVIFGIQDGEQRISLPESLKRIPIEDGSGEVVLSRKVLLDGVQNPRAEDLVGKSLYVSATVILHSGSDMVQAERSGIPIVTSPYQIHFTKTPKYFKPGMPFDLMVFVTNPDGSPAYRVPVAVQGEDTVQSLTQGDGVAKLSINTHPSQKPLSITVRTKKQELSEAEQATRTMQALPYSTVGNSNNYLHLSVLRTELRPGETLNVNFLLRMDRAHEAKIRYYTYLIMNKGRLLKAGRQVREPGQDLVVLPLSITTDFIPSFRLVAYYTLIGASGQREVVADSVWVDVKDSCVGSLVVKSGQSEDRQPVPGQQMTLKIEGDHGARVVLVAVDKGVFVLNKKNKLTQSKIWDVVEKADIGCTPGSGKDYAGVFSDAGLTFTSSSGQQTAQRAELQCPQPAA
UniProt P01024, 672-1663 limits assumed: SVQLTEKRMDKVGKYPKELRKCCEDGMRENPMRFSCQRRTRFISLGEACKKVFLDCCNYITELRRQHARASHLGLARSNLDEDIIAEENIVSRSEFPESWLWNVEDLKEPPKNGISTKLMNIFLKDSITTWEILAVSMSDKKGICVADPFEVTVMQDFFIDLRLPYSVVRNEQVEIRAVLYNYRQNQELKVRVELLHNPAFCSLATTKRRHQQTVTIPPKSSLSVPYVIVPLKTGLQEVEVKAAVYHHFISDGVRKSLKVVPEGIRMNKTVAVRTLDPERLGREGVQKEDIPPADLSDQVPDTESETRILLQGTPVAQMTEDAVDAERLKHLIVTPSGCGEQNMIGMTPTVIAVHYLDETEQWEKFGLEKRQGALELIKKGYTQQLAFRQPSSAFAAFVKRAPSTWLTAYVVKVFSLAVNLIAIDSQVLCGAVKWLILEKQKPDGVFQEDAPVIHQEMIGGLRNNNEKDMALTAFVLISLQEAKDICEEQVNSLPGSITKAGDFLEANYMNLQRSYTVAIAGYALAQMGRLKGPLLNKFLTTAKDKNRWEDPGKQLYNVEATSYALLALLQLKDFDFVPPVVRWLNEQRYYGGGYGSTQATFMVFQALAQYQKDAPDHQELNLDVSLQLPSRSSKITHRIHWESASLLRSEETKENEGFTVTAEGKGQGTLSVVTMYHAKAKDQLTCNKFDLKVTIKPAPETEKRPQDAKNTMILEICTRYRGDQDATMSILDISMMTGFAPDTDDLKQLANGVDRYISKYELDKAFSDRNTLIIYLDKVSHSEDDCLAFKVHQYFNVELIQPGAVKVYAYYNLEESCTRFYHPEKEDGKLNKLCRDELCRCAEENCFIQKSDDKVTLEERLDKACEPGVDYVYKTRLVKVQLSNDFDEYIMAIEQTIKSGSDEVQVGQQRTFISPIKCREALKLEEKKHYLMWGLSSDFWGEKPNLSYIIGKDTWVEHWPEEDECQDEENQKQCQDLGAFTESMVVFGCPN

T1: C2 (Homo sapiens, UniProt P06681)
T1 construct: from tissue
T1 sequence (P06681 21-752): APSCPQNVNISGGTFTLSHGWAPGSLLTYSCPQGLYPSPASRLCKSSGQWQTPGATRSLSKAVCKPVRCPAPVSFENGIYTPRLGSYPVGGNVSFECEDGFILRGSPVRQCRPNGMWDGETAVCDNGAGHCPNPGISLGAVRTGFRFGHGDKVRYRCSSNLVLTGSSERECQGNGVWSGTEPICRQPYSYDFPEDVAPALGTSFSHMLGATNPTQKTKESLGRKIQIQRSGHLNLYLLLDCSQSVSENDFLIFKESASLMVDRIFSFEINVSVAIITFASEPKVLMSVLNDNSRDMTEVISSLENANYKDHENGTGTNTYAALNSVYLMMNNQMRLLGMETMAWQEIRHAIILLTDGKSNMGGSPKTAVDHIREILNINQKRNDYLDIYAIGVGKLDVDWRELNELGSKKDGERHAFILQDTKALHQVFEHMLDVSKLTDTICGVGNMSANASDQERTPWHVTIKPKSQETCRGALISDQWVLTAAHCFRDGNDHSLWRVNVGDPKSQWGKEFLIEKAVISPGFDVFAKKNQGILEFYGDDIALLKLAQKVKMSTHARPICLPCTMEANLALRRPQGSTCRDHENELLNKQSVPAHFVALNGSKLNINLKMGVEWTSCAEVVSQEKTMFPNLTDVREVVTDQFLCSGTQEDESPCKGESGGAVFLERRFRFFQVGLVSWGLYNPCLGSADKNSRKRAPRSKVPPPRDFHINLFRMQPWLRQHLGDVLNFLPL

B1: MASP-2γB: E. coli-expressed, refolded human MASP-2 CCP1-CCP2-SP fragment, Thr287 to Phe686, Ala-Ser-Met tag; purified form starts with Ile291 (protein)
chain 1: IHYTSTAQPCPYPMAPPNGHVSPVQAKYILKDSFSIFCETGYELLQGHLPLKSFTAVCQKDGSWDRPMPACSIVDCGPPDDLPSGRVEYITGPGVTTYKAVIQYSCEETFYTMKVNDGKYVCEADGFWTSSKGEKSLPVCEPVCGLSARTTGGR
chain 2: IYGGQKAKPGDFPWQVLILGGTTAAGALLYDNWVLTAAHAVYEQKHDASALDIRMGTLKRLSPHYTQAWSEAVFIHEGYTHDAGFDNDIALIKLNNKVVINSNITPICLPRKEAESFMRTDDIGTASGWGLTQRGFLARNLMYVDIPIVDHQKCTAAYEKPPYPRGSVTANMLCAGLESGGKDSCRGDSGGALVFLDSETERWFVGGIVSWGSMNCGEAGQYGVYTKVINYIPWIENIISDF
B2: MASP-1γB: E. coli-expressed, refolded human MASP-1 CCP1-CCP2-SP fragment, Gly298 to Asn699 with N-terminal Ala-Ser-Met-Thr tag (protein)
chain 1: ASMTGNECPELQPPVHGKIEPSQAKYFFKDQVLVSCDTGYKVLKDNVEMDTFQIECLKDGTWSNKIPTCKIVDCRAPGELEHGLITFSTRNNLTTYKSEIKYSCQEPYYKMLNNNTGIYTCSAQGVWMNKVLGRSLPTCLPVCGLPKFSRKLMAR
chain 2: IFNGRPAQKGTTPWIAMLSHLNGQPFCGGSLLGSSWIVTAAHCLHQSLDPEDPTLRDSDLLSPSDFKIILGKHWRLRSDENEQHLGVKHTTLHPQYDPNTFENDVALVELLESPVLNAFVMPICLPEGPQQEGAMVIVSGWGKQFLQRFPETLMEIEIPIVDHSTCQKAYAPLKKKVTRDMICAGEKEGGKDACAGDSGGPMVTLNRERGQWYLVGTVSWGDDCGKKDRYGVYSYIHHNKDWIQRVTGVRN
B3: MASP-2 SP: E. coli-expressed, refolded human MASP-2 serine protease domain, Ala-Ser-Met-Thr tag followed by Pro432, ending Phe686 (protein)
chain 1: ASMTPVCGLSARTTGGR
chain 2: B1 chain 2
B4: MASP-2 CCP-SP: E. coli-expressed, refolded human MASP-2 CCP2-SP fragment, Ala-Ser-Met-Thr tag followed by Ile363, ending Phe686 (protein)
chain 1: ASMTIVDCGPPDDLPSGRVEYITGPGVTTYKAVIQYSCEETFYTMKVNDGKYVCEADGFWTSSKGEKSLPVCEPVCGLSARTTGGR
chain 2: B1 chain 2

Columns and labels:
[1] = molecular target: T2, live C3 (Homo sapiens, UniProt P01024); assay: Cleavage of live C3 by MASP fragments, SDS-PAGE densitometry; format: biochemical; conditions: 37° C., 20 mM HEPES, 140 mM NaCl, pH 7.4; averages of 2 to 4 experiments, standard errors
T2 construct: was isolated from fresh human serum; from tissue; host or cells: fresh human serum
Protocol: C2, C3, C3(NH3), C4 cleavage—Serial dilutions of MASP-1 and MASP-2 fragments ranging between concentrations of 1 μM and 10 pM were incubated at 37° C. in 20 mM HEPES, 140 mM NaCl, pH 7.4 with C2, C3, C3(NH3) or C4 at typical concentrations of 0.5-1 μM. The cleavage was followed by SDS-PAGE under reducing conditions. Desirable concentrations of the MASP fragments for further detailed kinetic analysis were chosen to be where half of the protein substrates were hydrolyzed during the first 20 minutes of incubation. The protein substrates C2, C3, C3(NH3) or C4 were then incubated with the selected concentrations of the MASP fragments at 37° C. in 20 mM HEPES, 140 mM NaCl, pH 7.4. Typically 11-13 samples were taken at varying time periods but always within 50 minutes from the beginning of the reaction. Cleavages rates were quantified by measuring the diminution of the cleaved chain visualized by Coomassie stained SDS-PAGs using a GEL DOC 1000 instrument and Molecular Analyst Software for densitometric calculations (Bio-Rad, Hercules, Calif., USA). The reactions were assumed to be of the Michaelis-Menten type. In the case of C3 and C3(NH3) cleavage a further reasonable assumption of KM>>[substrate] was made. […]

[2] = molecular target: T1, C2; assay: C2 cleavage by MASP fragments; format: biochemical; conditions: 37° C., pH 7.4, averages of 2 to 4 experiments, standard errors
Protocol: (§1) C2, C3, C3(NH3), C4 cleavage—Serial dilutions of MASP-1 and MASP-2 fragments ranging between concentrations of 1 μM and 10 pM were incubated at 37° C. in 20 mM HEPES, 140 mM NaCl, pH 7.4 with C2, C3, C3(NH3) or C4 at typical concentrations of 0.5-1 μM. The cleavage was followed by SDS-PAGE under reducing conditions. Desirable concentrations of the MASP fragments for further detailed kinetic analysis were chosen to be where half of the protein substrates were hydrolyzed during the first 20 minutes of incubation. The protein substrates C2, C3, C3(NH3) or C4 were then incubated with the selected concentrations of the MASP fragments at 37° C. in 20 mM HEPES, 140 mM NaCl, pH 7.4. Typically 11-13 samples were taken at varying time periods but always within 50 minutes from the beginning of the reaction. Cleavages rates were quantified by measuring the diminution of the cleaved chain visualized by Coomassie stained SDS-PAGs using a GEL DOC 1000 instrument and Molecular Analyst Software for densitometric calculations (Bio-Rad, Hercules, Calif., USA). The reactions were assumed to be of the Michaelis-Menten type. In the case of C3 and C3(NH3) cleavage a further reasonable assumption of KM>>[substrate] was made. The constants KM, kcat and […] were estimated by unbiased non-linear regression methods regressing the data on the following equations: t=([S0]−[S]+KMln([S0]/[S]))/(kcat[E0]) or in the case of C3 and C3(NH3) cleavage on [S]=[S0]exp(−t[E0]kcat/KM).

[3] = system: C4; assay: C4 cleavage by MASP fragments; format: biochemical, human; conditions: 37° C., pH 7.4, averages of 2 to 4 experiments, standard errors
Protocol: as §1

[4] = molecular target: T3, C3(NH3) (Homo sapiens, UniProt P01024); assay: Cleavage of dead C3, C3(NH3), by MASP fragments, SDS-PAGE densitometry; format: biochemical; conditions: 37° C., 20 mM HEPES, 140 mM NaCl, pH 7.4; averages of 2 to 4 experiments, standard errors
T3 construct: was isolated from fresh human serum; from tissue; host or cells: fresh human serum, then amidolysis with ammonium hydrogen carbonate
Protocol: Amidolysis of C3 The intact thiol ester bond in ‘live’ C3 was cleaved using ammonium salt as the nucleophile to obtain ‘dead’ C3(NH3), according to Soames and Sim (1997) with modifications. C3 was incubated with a final concentration of 0.2 M ammonium hydrogen carbonate for 90 min at 37° C., making sure that the final pH of the reaction was above 8.0. At the end of the incubation, the reaction was collected with a brief centrifugation (5 min, 8000 g, RT) and dialyzed against 20 mM HEPES, 140 mM NaCl, pH 7.4.
C2, C3, C3(NH3), C4 cleavage—Serial dilutions of MASP-1 and MASP-2 fragments ranging between concentrations of 1 μM and 10 pM were incubated at 37° C. in 20 mM HEPES, 140 mM NaCl, pH 7.4 with C2, C3, C3(NH3) or C4 at typical concentrations of 0.5-1 μM. The cleavage was followed by SDS-PAGE under reducing conditions. Desirable concentrations of the MASP fragments for further detailed kinetic analysis were chosen to be where half of the protein substrates were hydrolyzed during the first 20 minutes of incubation. […] Cleavages rates were quantified by measuring the diminution of the cleaved chain visualized by Coomassie stained SDS-PAGs using a GEL DOC 1000 instrument and Molecular Analyst Software for densitometric calculations (Bio-Rad, Hercules, Calif., USA). […]

| Molecule | kcat/KM, cleavage of live C3 [1] [M⁻¹ s⁻¹] | C2 kcat/KM [2] | Km [2] [µM] | C2 kcat/KM ([2]; listed as MASP-2 CCP1-CCP-2-SP) | C4 kcat/KM [3] | Km [3] [µM] | C4 kcat/KM ([3]; listed as MASP-2 CCP1-CCP-2-SP) | kcat/KM, cleavage of C3(NH3) [4] |
| --- | --- | --- | --- | --- | --- | --- | --- | --- |
| B1 | 350 ± 20 | 500 000 ± 9 000 M^−1 s^−1 | 4 ± 1.7 | ~500 000 M^−1 s^−1 | 550 000 ± 50 000 M^−1 s^−1 | 1.6 ± 0.5 | ~500 000 M^−1 s^−1 | 3 300 ± 300 M^−1 s^−1 |
| B2 | 300 ± 30 | 30 000 ± 12 000 M^−1 s^−1 | 4.8 ± 4.3 | – | 690 ± 400 M⁻¹ s⁻¹ | 2.7 ± 2.4 | – | 6 100 ± 600 M^−1 s^−1 |
| B3 | – | – | 3.2 ± 2.8 | – | – | 2 ± 1 | – | – |
| B4 | – | – | 2.7 ± 2 | – | – | 0.4 ± 0.2 | – | – |
